Reference: the supplement of paper PMC7661543
The effect of the compound repeats well; differences between the knockouts mostly do not.

Tested on: SKBR3
Experiment: relative cell number vs DMSO control (72 h) (% of DMSO); higher = less growth inhibition (more cells)
Experimental: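 QMAP-Seq: a pool of 5 breast cancer cell lines (ZR-75-1, SKBR3, HCC-38, MDA-MB-231, BT-20), each carrying 12 doxycycline-inducible Cas9 sgRNA perturbations (11 knockouts plus non-targeting sgNT), was treated with compounds for 72 h at four 10-fold doses (10 nM-10 uM or 1 nM-1 uM range). Barcodes were amplified and sequenced, and cell number was interpolated from 293T spike-in standard curves. The result is expressed as % of the median of DMSO wells. Two biological replicates.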

Cc1ccc(S(=O)(=O)OCC(=O)Nc2ccc(C(=O)O)c(O)c2)cc1
Settings | relative cell number
sgRNA knockout: sgATF3, 10 nM | 102
sgRNA knockout: sgATF3, 100 nM | 78.3
sgRNA knockout: sgATF3, 1000 nM | 104
sgRNA knockout: sgATF3, 10000 nM | 106
sgRNA knockout: sgATF4, 10 nM | 96.3
sgRNA knockout: sgATF4, 100 nM | 88.8
sgRNA knockout: sgATF4, 1000 nM | 86.5
sgRNA knockout: sgATF4, 10000 nM | 91.6
sgRNA knockout: sgATF6, 10 nM | 99.7
sgRNA knockout: sgATF6, 100 nM | 92.8
sgRNA knockout: sgATF6, 1000 nM | 84.4
sgRNA knockout: sgATF6, 10000 nM | 100
sgRNA knockout: sgATG7, 10 nM | 87.3
sgRNA knockout: sgATG7, 100 nM | 103
sgRNA knockout: sgATG7, 1000 nM | 80.7
sgRNA knockout: sgATG7, 10000 nM | 95.8
sgRNA knockout: sgERN1, 10 nM | 102
sgRNA knockout: sgERN1, 100 nM | 81.6
sgRNA knockout: sgERN1, 1000 nM | 83.4
sgRNA knockout: sgERN1, 10000 nM | 85.1
sgRNA knockout: sgHSF1, 10 nM | 65.5
sgRNA knockout: sgHSF1, 100 nM | 86.8
sgRNA knockout: sgHSF1, 1000 nM | 91.8
sgRNA knockout: sgHSF1, 10000 nM | 87.8
sgRNA knockout: sgHSF2, 10 nM | 102
sgRNA knockout: sgHSF2, 100 nM | 93.9
sgRNA knockout: sgHSF2, 1000 nM | 89.9
sgRNA knockout: sgHSF2, 10000 nM | 99.9
sgRNA knockout: sgKEAP1, 10 nM | 87.4
sgRNA knockout: sgKEAP1, 100 nM | 72.8
sgRNA knockout: sgKEAP1, 1000 nM | 85.3
sgRNA knockout: sgKEAP1, 10000 nM | 95.2
sgRNA knockout: sgNFE2L2, 10 nM | 90.1
sgRNA knockout: sgNFE2L2, 100 nM | 110
sgRNA knockout: sgNFE2L2, 1000 nM | 101
sgRNA knockout: sgNFE2L2, 10000 nM | 84
sgRNA knockout: sgSLC35F2, 10 nM | 89.3
sgRNA knockout: sgSLC35F2, 100 nM | 100
sgRNA knockout: sgSLC35F2, 1000 nM | 103
sgRNA knockout: sgSLC35F2, 10000 nM | 84.8
sgRNA knockout: sgXBP1, 10 nM | 115
sgRNA knockout: sgXBP1, 100 nM | 88.4
sgRNA knockout: sgXBP1, 1000 nM | 87.6
sgRNA knockout: sgXBP1, 10000 nM | 117

Cc1nc(Nc2n[nH]c3c2CN(C(=O)N[C@H](CN(C)C)c2ccccc2)C3(C)C)c2sccc2n1
Settings | relative cell number
sgRNA knockout: sgATF3, 10 nM | 67.7
sgRNA knockout: sgATF3, 100 nM | 59.6
sgRNA knockout: sgATF3, 1000 nM | 32.6
sgRNA knockout: sgATF3, 10000 nM | 4.88
sgRNA knockout: sgATF4, 10 nM | 56.6
sgRNA knockout: sgATF4, 100 nM | 43
sgRNA knockout: sgATF4, 1000 nM | 23.1
sgRNA knockout: sgATF4, 10000 nM | 3.43
sgRNA knockout: sgATF6, 10 nM | 64.5
sgRNA knockout: sgATF6, 100 nM | 48.5
sgRNA knockout: sgATF6, 1000 nM | 19.4
sgRNA knockout: sgATF6, 10000 nM | 3.71
sgRNA knockout: sgATG7, 10 nM | 53.1
sgRNA knockout: sgATG7, 100 nM | 59.3
sgRNA knockout: sgATG7, 1000 nM | 28
sgRNA knockout: sgATG7, 10000 nM | 2.99
sgRNA knockout: sgERN1, 10 nM | 67.3
sgRNA knockout: sgERN1, 100 nM | 44.03
sgRNA knockout: sgERN1, 1000 nM | 23.4
sgRNA knockout: sgERN1, 10000 nM | 2.8
sgRNA knockout: sgHSF1, 10 nM | 61.2
sgRNA knockout: sgHSF1, 100 nM | 37
sgRNA knockout: sgHSF1, 1000 nM | 26
sgRNA knockout: sgHSF1, 10000 nM | 5.67
sgRNA knockout: sgHSF2, 10 nM | 65.2
sgRNA knockout: sgHSF2, 100 nM | 57.2
sgRNA knockout: sgHSF2, 1000 nM | 25.2
sgRNA knockout: sgHSF2, 10000 nM | 3.22
sgRNA knockout: sgKEAP1, 10 nM | 56.5
sgRNA knockout: sgKEAP1, 100 nM | 44.58
sgRNA knockout: sgKEAP1, 1000 nM | 20.5
sgRNA knockout: sgKEAP1, 10000 nM | 3.93
sgRNA knockout: sgNFE2L2, 10 nM | 59.9
sgRNA knockout: sgNFE2L2, 100 nM | 50.2
sgRNA knockout: sgNFE2L2, 1000 nM | 22.3
sgRNA knockout: sgNFE2L2, 10000 nM | 3.36
sgRNA knockout: sgSLC35F2, 10 nM | 61.5
sgRNA knockout: sgSLC35F2, 100 nM | 54.398
sgRNA knockout: sgSLC35F2, 1000 nM | 18.7
sgRNA knockout: sgSLC35F2, 10000 nM | 4.98
sgRNA knockout: sgXBP1, 10 nM | 52
sgRNA knockout: sgXBP1, 100 nM | 51
sgRNA knockout: sgXBP1, 1000 nM | 22.4
sgRNA knockout: sgXBP1, 10000 nM | 2.05
